Measured values as given in paper PMC6687725.
Results are given in words; binding and its absence hold for the method and conditions named. Some binding calls cover weakened binding; strength is not graded here.

Sequences of proteins named here, by UniProt entry; tags and fusion partners are left off. Residues count along the entry.
UniProt Q9Z1J3, residues 59-459: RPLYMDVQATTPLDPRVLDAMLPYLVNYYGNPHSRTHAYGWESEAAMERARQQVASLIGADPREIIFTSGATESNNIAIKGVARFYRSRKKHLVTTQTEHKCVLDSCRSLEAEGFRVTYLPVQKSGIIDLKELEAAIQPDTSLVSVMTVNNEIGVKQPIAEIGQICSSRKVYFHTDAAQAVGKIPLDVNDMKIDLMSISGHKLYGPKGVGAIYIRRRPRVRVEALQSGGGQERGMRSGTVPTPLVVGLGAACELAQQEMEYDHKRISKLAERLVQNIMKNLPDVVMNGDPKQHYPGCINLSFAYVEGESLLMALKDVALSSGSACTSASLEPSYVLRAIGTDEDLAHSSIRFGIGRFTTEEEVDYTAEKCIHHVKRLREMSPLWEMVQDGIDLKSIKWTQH
UniProt P0A6A8: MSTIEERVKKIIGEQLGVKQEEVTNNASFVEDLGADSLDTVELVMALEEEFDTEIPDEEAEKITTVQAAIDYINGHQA

Target: NFS1 (mouse) (UniProt Q9Z1J3)
Assay: co-purification (Ni affinity, then size exclusion); His6-NFS1 co-expressed with ISD11 in E. coli; HiTrap chelating HP with nickel, 50 mM Na2HPO4, 150 mM NaCl, pH 8, imidazole gradient, then Superdex 200

| binding | Molecule |
| --- | --- |
| binds | ACP (from UniProt P0A6A8 1-78) |
| binds | ISD11 (protein, UniProt Q8K215 1-91) MAASSRAQVLDLYRAMMRESKHFSAYNYRMYAVRRIRDAFRENKNVKDPVEIQALVNKAKRDLEIIRRQVHIGQLYSTDKLIIENQEKPRT |
